In one experiment the target is MBP–FLS2CD (Arabidopsis) (UniProt Q9FL28). Kind of experiment: pull-down; About 10 μg of MBP or MBP fusion on amylose beads as bait, 10 μg of GST-tagged protein in 1 ml pull-down buffer (20mM TRIS-HCl pH 7.5, 1mM β-mercaptoethanol, 3mM EDTA, 150mM NaCl, 1% NP-40), 1h at 4 °C; western blot with α-GST (Fig. 1B, 1F); both purified. A general note: In western blotting, separated proteins are transferred to a membrane and probed.

By UniProt entry, the sequences of proteins in these tests, tags left out. Residues count along the entry.
UniProt Q9FL28, residues 828-1173: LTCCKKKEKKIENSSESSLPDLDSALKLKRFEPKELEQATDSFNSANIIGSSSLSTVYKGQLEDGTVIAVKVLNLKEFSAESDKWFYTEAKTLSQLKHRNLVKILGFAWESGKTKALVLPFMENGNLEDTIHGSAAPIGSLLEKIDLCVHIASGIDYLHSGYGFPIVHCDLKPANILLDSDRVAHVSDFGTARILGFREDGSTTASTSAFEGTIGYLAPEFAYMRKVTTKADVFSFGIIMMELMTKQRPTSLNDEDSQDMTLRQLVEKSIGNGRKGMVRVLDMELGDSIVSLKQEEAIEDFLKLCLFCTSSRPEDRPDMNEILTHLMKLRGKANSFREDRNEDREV

The target in a further experiment is T1, BAK1–cYFP (Arabidopsis) (UniProt Q94F62).
T1 sequence: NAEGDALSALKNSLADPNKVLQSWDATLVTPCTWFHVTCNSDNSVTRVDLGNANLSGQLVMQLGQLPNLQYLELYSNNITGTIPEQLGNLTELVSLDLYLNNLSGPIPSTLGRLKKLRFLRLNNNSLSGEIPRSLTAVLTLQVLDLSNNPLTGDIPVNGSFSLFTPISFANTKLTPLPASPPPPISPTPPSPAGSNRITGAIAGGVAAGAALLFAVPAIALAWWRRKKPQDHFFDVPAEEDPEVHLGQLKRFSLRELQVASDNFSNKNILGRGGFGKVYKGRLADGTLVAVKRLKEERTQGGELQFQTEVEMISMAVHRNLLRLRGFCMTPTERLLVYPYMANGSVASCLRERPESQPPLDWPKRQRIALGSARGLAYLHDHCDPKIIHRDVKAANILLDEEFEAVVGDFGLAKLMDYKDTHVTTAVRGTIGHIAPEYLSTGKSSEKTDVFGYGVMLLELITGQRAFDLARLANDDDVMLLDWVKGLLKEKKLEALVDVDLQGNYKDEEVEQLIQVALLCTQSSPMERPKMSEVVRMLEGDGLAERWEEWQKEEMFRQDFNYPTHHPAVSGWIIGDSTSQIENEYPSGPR
In words: split reporter; BiFC in Arabidopsis protoplasts co-transfected with nYFP and cYFP fusions; confocal microscopy 18h after transfection (Fig. 1D).

Results are given in words; binding and its absence hold for the method and conditions named. For some assays here: Binding seen in cells or lysates may run through a third protein. Where a sequence is shown, tags or fusion partners need not be part of it.

B1: GST–PUB13 (enzyme, UniProt Q9SNC6 1-660)
chain: MEEEKASAAQSLIDVVNEIAAISDYRITVKKLCYNLARRLKLLVPMFEEIRESNEPISEDTLKTLMNLKEAMCSAKDYLKFCSQGSKIYLVMEREQVTSKLMEVSVKLEQSLSQIPYEELDISDEVREQVELVLSQFRRAKGRVDVSDDELYEDLQSLCNKSSDVDAYQPVLERVAKKLHLMEIPDLAQESVALHEMVASSGGDVGENIEEMAMVLKMIKDFVQTEDDNGEEQKVGVNSRSNGQTSTAASQKIPVIPDDFRCPISLEMMRDPVIVSSGQTYERTCIEKWIEGGHSTCPKTQQALTSTTLTPNYVLRSLIAQWCEANDIEPPKPPSSLRPRKVSSFSSPAEANKIEDLMWRLAYGNPEDQRSAAGEIRLLAKRNADNRVAIAEAGAIPLLVGLLSTPDSRIQEHSVTALLNLSICENNKGAIVSAGAIPGIVQVLKKGSMEARENAAATLFSLSVIDENKVTIGALGAIPPLVVLLNEGTQRGKKDAATALFNLCIYQGNKGKAIRAGVIPTLTRLLTEPGSGMVDEALAILAILSSHPEGKAIIGSSDAVPSLVEFIRTGSPRNRENAAAVLVHLCSGDPQHLVEAQKLGLMGPLIDLAGNGTDRGKRKAAQLLERISRLAEQQKETAVSQPEEEAEPTHPESTTEAADT
Turning to B1, the binding result with MBP–FLS2CD (Arabidopsis) is “no binding (tested: 10 μg of each protein in 1 ml)”.

B2: U-box–nYFP (domain or fragment, UniProt Q9SNC6 255-329)
chain: VIPDDFRCPISLEMMRDPVIVSSGQTYERTCIEKWIEGGHSTCPKTQQALTSTTLTPNYVLRSLIAQWCEANDIE
Consider B2, for which, in the experiment with BAK1–cYFP (Arabidopsis), the binding entry was “no binding”.

The record behind these values is PMC4449551, “The dominant negative ARM domain uncovers multiple functions of PUB13 in Arabidopsis immunity, flowering, and senescence” (Journal of Experimental Botany, 2015).
